The other results are listed elsewhere or left out.
What was measured:
Experiment in all cases: log2 fold change, soluble protein after heating vs DMSO (PISA); higher = thermal stabilisation; K562 cells, 10 uM, 30 min; active = over 0.2 and 3.5 SD of the protein, either way, in both replicates (recomputed)
[1] = compound: NC(=O)Nc1cc(-c2cccc(F)c2)sc1C(=O)N[C@H]1CCCNC1
How it was run: (§1)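 K562 cells (2×10^6 cells/mL) were treated with 10 μM compound for 30 min, and aliquots were heated for 3 min over 48°C-58°C. Pooled aliquots were extracted in PBS with 0.5% NP-40 at 4°C, and the supernatant after 21,000xg for 90 min was measured by TMTpro 16plex LC-MS/MS with channel sums equalised. Reported thermal stability, relative to control samples and from duplicates, is a log2 fold change.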

Sequences of proteins named here, by UniProt entry; tags and fusion partners are left off. A change or cut given only in a name is not applied to a line headed by its entry.
UniProt Q9UIQ6, whole entry, looked up: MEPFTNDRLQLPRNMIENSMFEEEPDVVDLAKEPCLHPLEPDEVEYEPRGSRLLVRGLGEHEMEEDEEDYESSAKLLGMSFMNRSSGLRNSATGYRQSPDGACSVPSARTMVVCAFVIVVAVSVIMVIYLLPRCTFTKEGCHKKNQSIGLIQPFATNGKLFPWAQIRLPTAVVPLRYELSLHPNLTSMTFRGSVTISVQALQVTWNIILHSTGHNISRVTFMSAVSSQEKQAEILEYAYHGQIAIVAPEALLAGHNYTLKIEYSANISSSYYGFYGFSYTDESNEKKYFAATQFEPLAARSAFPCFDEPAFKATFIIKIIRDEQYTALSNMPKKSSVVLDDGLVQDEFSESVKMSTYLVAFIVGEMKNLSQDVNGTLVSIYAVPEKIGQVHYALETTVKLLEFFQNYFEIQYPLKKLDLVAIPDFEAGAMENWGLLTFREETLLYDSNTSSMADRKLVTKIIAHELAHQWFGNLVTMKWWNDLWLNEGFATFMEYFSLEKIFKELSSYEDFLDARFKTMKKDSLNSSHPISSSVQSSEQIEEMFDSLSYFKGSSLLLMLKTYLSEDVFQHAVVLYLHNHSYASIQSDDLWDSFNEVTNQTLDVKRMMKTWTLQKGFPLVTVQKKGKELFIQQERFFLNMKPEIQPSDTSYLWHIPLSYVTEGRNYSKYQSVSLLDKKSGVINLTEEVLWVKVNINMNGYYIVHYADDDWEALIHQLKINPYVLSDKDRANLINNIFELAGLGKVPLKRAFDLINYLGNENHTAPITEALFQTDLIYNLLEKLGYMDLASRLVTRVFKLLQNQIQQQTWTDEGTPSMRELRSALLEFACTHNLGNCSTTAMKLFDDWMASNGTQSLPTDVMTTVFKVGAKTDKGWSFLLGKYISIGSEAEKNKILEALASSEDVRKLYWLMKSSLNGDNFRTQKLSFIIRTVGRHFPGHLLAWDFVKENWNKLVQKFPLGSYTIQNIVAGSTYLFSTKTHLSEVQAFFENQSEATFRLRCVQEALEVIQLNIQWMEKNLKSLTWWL
UniProt Q9BQK8: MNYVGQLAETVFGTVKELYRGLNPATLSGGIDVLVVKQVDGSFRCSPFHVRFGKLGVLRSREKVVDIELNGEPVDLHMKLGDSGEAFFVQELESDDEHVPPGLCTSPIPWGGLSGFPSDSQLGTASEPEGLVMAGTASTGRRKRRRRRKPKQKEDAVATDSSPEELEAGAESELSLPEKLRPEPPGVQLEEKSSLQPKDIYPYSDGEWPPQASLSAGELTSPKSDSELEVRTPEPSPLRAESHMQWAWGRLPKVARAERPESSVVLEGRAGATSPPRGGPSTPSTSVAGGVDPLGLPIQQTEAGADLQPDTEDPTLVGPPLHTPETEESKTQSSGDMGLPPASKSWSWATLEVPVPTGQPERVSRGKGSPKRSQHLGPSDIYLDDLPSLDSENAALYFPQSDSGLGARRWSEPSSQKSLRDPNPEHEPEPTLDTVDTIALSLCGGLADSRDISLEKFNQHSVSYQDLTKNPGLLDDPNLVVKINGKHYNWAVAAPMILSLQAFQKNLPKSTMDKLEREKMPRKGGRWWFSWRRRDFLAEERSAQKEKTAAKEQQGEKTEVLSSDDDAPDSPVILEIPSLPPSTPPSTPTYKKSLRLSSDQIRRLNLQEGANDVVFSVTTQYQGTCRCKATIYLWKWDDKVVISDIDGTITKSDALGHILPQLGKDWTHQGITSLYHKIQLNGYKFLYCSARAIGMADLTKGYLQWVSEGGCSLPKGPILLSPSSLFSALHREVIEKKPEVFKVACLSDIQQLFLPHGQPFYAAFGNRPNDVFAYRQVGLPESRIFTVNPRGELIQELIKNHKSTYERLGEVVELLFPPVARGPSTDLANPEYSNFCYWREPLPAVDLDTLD
UniProt Q86WA8: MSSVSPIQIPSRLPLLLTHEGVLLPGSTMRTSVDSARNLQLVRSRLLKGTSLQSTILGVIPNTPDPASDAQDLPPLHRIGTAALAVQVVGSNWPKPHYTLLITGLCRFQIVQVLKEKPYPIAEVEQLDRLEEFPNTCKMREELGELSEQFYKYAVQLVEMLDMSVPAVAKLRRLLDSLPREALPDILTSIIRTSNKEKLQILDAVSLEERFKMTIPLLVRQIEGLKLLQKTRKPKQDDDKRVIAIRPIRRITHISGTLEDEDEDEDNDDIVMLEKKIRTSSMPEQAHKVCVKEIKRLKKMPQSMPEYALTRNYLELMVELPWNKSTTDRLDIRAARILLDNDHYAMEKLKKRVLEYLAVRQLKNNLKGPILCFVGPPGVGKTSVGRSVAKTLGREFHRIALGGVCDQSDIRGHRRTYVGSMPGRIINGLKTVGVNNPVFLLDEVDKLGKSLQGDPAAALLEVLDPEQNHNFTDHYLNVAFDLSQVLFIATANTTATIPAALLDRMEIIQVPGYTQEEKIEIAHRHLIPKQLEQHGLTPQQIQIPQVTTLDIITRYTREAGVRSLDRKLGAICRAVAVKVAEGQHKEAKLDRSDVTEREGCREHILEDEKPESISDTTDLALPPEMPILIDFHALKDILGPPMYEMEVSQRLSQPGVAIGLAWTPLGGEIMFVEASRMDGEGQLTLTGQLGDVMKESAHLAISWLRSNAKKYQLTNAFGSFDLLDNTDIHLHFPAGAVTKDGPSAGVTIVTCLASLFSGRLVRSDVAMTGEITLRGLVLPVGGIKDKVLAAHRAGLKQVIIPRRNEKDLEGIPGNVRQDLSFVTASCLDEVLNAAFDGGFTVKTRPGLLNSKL
UniProt Q6YP21: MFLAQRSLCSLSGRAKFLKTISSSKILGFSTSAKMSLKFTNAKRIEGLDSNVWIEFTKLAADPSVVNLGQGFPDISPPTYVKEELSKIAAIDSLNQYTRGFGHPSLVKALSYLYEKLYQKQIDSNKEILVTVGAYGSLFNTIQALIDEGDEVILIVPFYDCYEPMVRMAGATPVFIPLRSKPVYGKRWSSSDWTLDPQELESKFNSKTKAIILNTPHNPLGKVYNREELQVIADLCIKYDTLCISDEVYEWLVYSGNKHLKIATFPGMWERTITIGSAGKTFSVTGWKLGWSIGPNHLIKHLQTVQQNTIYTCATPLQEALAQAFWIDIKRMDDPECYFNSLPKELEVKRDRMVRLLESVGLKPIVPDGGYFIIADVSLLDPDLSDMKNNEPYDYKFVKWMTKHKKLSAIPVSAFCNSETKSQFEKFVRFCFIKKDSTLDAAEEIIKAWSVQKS
UniProt P53671: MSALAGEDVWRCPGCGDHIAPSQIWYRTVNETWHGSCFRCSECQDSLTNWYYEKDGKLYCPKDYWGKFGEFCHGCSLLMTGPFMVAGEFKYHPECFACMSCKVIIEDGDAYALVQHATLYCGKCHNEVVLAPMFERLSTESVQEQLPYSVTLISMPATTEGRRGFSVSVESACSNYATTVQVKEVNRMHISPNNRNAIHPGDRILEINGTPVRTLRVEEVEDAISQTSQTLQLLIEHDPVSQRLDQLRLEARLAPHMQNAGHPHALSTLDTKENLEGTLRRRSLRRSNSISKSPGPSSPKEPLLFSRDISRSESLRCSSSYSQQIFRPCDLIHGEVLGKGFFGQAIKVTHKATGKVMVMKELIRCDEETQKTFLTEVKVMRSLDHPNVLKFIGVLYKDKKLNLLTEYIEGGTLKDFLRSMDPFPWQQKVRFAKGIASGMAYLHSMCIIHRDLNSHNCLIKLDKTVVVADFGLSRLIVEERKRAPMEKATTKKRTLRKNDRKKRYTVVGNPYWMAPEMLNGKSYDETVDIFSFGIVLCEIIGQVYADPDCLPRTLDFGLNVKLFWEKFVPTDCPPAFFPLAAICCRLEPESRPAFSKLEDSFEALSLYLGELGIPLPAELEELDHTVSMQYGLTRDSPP
UniProt Q92539: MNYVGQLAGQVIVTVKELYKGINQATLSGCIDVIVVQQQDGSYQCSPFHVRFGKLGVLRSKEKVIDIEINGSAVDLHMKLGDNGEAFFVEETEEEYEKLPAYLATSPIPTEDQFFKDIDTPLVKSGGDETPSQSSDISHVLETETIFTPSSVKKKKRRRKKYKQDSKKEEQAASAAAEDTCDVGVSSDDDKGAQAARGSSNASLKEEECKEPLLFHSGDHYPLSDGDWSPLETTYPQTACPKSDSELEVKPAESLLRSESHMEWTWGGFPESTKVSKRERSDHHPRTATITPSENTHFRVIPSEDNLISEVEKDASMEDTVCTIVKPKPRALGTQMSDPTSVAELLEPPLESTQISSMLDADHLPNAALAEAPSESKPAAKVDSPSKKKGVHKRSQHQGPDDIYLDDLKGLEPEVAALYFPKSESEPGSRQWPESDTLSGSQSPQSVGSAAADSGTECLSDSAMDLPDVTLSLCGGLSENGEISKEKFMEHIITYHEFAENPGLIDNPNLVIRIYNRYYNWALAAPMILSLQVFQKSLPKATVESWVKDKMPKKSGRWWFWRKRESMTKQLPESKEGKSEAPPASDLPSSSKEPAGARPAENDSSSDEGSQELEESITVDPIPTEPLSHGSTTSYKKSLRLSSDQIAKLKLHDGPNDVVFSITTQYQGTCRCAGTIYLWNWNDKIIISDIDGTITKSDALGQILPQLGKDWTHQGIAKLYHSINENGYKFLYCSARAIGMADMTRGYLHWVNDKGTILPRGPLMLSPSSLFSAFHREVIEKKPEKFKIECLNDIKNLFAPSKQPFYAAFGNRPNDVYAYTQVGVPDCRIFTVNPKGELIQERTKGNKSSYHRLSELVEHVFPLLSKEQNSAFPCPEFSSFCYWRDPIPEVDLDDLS
UniProt P36776: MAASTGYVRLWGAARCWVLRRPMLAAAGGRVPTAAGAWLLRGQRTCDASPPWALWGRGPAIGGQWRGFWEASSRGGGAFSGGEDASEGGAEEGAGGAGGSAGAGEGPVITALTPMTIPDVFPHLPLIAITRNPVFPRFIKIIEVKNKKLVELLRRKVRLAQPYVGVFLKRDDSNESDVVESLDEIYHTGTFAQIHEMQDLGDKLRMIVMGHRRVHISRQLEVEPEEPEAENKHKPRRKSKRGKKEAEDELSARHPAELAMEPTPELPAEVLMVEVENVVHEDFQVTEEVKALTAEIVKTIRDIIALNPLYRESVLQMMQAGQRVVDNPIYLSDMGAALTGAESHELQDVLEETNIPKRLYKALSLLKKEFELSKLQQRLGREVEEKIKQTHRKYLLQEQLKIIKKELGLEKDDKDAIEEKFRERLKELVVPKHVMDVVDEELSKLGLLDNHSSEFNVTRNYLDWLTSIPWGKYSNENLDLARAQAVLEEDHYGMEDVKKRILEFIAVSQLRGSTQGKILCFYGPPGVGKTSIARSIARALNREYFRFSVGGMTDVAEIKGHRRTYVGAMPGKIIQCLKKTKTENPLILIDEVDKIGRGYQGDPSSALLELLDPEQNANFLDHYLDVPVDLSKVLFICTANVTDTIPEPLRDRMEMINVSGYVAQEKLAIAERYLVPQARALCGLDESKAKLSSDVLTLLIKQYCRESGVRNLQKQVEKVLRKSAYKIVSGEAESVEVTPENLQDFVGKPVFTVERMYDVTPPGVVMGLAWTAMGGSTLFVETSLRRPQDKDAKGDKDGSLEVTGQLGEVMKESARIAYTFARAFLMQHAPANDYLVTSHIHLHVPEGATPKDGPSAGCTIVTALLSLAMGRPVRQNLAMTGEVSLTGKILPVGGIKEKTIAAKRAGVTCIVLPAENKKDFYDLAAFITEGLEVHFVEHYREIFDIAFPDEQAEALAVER
UniProt P28838: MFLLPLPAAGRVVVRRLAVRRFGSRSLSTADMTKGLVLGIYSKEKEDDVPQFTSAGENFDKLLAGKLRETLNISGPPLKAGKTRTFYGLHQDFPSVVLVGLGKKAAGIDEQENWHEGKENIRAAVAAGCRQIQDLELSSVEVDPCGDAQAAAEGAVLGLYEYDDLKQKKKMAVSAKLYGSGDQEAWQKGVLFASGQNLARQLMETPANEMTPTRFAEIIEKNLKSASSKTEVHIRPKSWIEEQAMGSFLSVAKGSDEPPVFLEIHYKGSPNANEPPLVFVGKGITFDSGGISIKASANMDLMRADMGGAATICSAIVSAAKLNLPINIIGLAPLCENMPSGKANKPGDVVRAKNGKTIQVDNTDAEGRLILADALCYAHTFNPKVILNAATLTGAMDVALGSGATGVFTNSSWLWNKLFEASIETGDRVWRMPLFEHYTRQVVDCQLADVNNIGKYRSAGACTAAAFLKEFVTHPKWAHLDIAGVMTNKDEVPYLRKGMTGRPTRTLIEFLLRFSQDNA
UniProt P30533, whole entry, looked up: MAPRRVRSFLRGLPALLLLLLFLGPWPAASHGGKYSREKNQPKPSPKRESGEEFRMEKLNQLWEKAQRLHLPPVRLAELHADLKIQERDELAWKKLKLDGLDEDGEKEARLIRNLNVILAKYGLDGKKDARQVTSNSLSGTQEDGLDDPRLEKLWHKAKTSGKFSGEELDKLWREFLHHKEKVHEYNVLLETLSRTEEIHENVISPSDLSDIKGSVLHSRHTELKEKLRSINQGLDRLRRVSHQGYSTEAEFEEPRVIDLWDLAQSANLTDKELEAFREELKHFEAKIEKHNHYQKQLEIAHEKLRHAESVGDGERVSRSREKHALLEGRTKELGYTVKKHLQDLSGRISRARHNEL

[2] = compound: NC(=O)c1cnc(N[C@@H]2CCCC[C@@H]2N)nc1Nc1cccc(-n2nccn2)c1
How it was run: as §1

[3] = compound: NC1(c2ccc(-c3nc4ccn5c(=O)[nH]nc5c4cc3-c3ccccc3)cc2)CCC1
How it was run: as §1

[4] = compound: NCC(=O)Nc1ccc(-n2nc(C(F)(F)F)cc2-c2ccc3c(ccc4ccccc43)c2)cc1
How it was run: as §1

entinostat = compound: Nc1ccccc1NC(=O)c1ccc(CNC(=O)OCc2cccnc2)cc1 [entinostat]
How it was run: as §1

vorinostat = compound: O=C(CCCCCCC(=O)Nc1ccccc1)NO [vorinostat]
How it was run: as §1

citarinostat = compound: O=C(CCCCCCNC(=O)c1cnc(N(c2ccccc2)c2ccccc2Cl)nc1)NO [citarinostat]
How it was run: as §1

silmitasertib = compound: O=C(O)c1ccc2c(c1)nc(Nc1cccc(Cl)c1)c1ccncc12 [silmitasertib]
How it was run: as §1

[5] = compound: O=C1NC(=O)C(c2cnc3ccccn23)=C1c1cn2c3c(cc(F)cc13)CN(C(=O)N1CCCCC1)CC2
How it was run: as §1

[6] = compound: c1cc(OCCN2CCCCC2)cc(-c2n[nH]c3ccc(-c4nnc[nH]4)cc23)c1
How it was run: as §1

entospletinib = compound: c1cn2cc(-c3ccc4cn[nH]c4c3)nc(Nc3ccc(N4CCOCC4)cc3)c2n1 [entospletinib]
How it was run: as §1

Measured: log2 fold change

LNPEP (UniProt Q9UIQ6)
inactive: [1] 0.037 | [2] 0.011 | [3] -0.037 | [4] 0.019 | entinostat -0.028 | vorinostat -0.007 | citarinostat 0.056 | silmitasertib 0.002 | [5] 0.004 | [6] -0.022

LGALS8 isoform 2 (UniProt O00214)
inactive: [1] -0.053 | [2] -0.096 | [3] 0.179 | [4] 0.055 | entinostat 0.091 | vorinostat 0.078 | citarinostat 0.051 | silmitasertib 0.147 | [5] 0.121 | [6] -0.129

LIMA1 isoform 4 (UniProt Q9UHB6)
inactive: [1] 0.062 | [2] -0.045 | [3] 0.081 | [4] 0.006 | entinostat 0.004 | vorinostat 0.067 | citarinostat -0.024 | silmitasertib -0.006 | [5] -0.073 | [6] -0.012

LARP7 isoform 3 (UniProt Q4G0J3)
inactive: [1] -0.011 | [2] -0.116 | [3] -0.129 | [4] -0.019 | entinostat -0.007 | vorinostat 0.082 | citarinostat 0.043 | silmitasertib 0.03 | [5] -0.034 | [6] -0.065

LIMD1 (UniProt Q9UGP4)
inactive: [1] 0.009 | [2] 0.005 | [3] 0.004 | [4] -0.029 | entinostat -0.038 | vorinostat 0.025 | citarinostat 0.052 | silmitasertib 0.03 | [5] -0.06 | [6] 0.01

LCLAT1 (UniProt Q6UWP7)
inactive: [1] 0.019 | [2] 0.022 | [3] 0.015 | [4] 0.034 | entinostat -0.008 | vorinostat 0.04 | citarinostat 0.025 | silmitasertib -0.037 | [5] 0.001 | [6] -0.001 | entospletinib -0.122

LPIN3 isoform 2 (UniProt Q9BQK8)
inactive: [1] 0.014 | [2] -0.027 | [3] -0.044 | [4] 0.041 | entinostat -0.006 | vorinostat 0.011 | citarinostat 0.001 | silmitasertib -0.116 | [5] -0.054 | [6] -0.142

KTN1 (UniProt Q86UP2)
inactive: [1] 0.036 | [2] 0.06 | [3] 0.035 | [4] -0.038 | entinostat 0.05 | vorinostat 0.027 | citarinostat 0.033 | silmitasertib 0.06 | [5] 0.148 | [6] -0.189

LONP2 (UniProt Q86WA8)
inactive: [1] 0.094 | [2] 0.024 | [3] -0.279 | [4] 0.041 | entinostat -0.05 | vorinostat -0.006 | citarinostat -0.069 | silmitasertib 0.105 | [5] -0.007 | [6] -0.219

LARP4 isoform 4 (UniProt Q71RC2)
inactive: [1] -0.034 | [2] -0.094 | [3] 0.084 | [4] 0.048 | entinostat 0.037 | vorinostat 0.133 | citarinostat -0.004 | silmitasertib 0.043 | [5] 0.009 | [6] -0.116

KYAT3 (UniProt Q6YP21)
inactive: [1] 0.02 | [2] 0 | [3] -0.019 | [4] -0.009 | entinostat -0.03 | vorinostat -0.002 | citarinostat 0.013 | silmitasertib 0.01 | [5] -0.025 | [6] -0.043 | entospletinib -0.004

KYNU (UniProt Q16719)
inactive: [1] -0.045 | [2] 0.025 | [3] -0.011 | [4] 0.025 | entinostat 0.016 | vorinostat 0.011 | citarinostat 0.027 | silmitasertib -0.021 | [5] 0.058 | [6] -0.052 | entospletinib -0.02

LAMTOR2 (UniProt Q9Y2Q5)
inactive: [1] 0.002 | [2] -0.052 | [3] -0.098 | [4] 0 | entinostat 0.05 | vorinostat 0.009 | citarinostat 0.034 | silmitasertib 0.058 | [5] -0.08 | [6] -0.107 | entospletinib 0.071

LIMK2 isoform 3 (UniProt P53671)
inactive: [1] -0.413 | [2] -0.086 | [3] -0.008 | [4] -0.231 | entinostat -0.152 | vorinostat -0.032 | citarinostat -0.286 | silmitasertib 0.316 | [5] -0.199 | [6] -0.067 | entospletinib 0.033

LRRC47 (UniProt Q8N1G4)
inactive: [1] 0.014 | [2] -0.019 | [3] -0.025 | [4] 0.053 | entinostat -0.016 | vorinostat 0.016 | citarinostat -0.006 | silmitasertib -0.039 | [5] -0.004 | [6] 0.007 | entospletinib 0.015

LANCL1 (UniProt O43813)
inactive: [1] -0.008 | [2] -0.023 | [3] 0.001 | [4] 0.074 | entinostat -0.031 | vorinostat 0.027 | citarinostat 0.037 | silmitasertib -0.021 | [5] 0.073 | [6] -0.036 | entospletinib 0.003

LARS (UniProt Q9P2J5)
inactive: [1] 0.117 | [2] -0.007 | [3] 0.101 | [4] 0.059 | entinostat 0.025 | vorinostat 0.003 | citarinostat -0.017 | silmitasertib 0.158 | [5] 0.226 | [6] -0.138 | entospletinib 0.113

LDHB (UniProt P07195)
inactive: [1] 0.012 | [2] 0.012 | [3] 0.056 | [4] 0 | entinostat -0.021 | vorinostat 0.029 | citarinostat 0 | silmitasertib -0.02 | [5] -0.024 | [6] -0.013 | entospletinib 0.027

LPIN2 (UniProt Q92539)
inactive: [1] 0.024 | [2] -0.056 | [3] -0.025 | [4] 0.044 | entinostat -0.001 | vorinostat 0.024 | citarinostat -0.067 | silmitasertib -0.072 | [5] -0.203 | [6] -0.036 | entospletinib 0.061

LMAN1 (UniProt P49257)
inactive: [1] 0.026 | [2] -0.029 | [3] -0.106 | [4] -0.031 | entinostat 0.033 | vorinostat 0.012 | citarinostat -0.021 | silmitasertib 0.046 | [5] -0.046 | [6] 0.02 | entospletinib 0.007

LRRC20 (UniProt Q8TCA0)
inactive: [1] -0.006 | [2] -0.067 | [3] -0.045 | [4] 0.034 | entinostat 0.016 | vorinostat 0 | citarinostat 0 | silmitasertib -0.048 | [5] -0.027 | [6] -0.094 | entospletinib 0.023

2 consecutive records from above, quoted:
KTN1 (UniProt Q86UP2)
inactive: [1] 0.036 | [2] 0.06 | [3] 0.035 | [4] -0.038 | entinostat 0.05 | vorinostat 0.027 | citarinostat 0.033 | silmitasertib 0.06 | [5] 0.148 | [6] -0.189

LONP2 (UniProt Q86WA8)
inactive: [1] 0.094 | [2] 0.024 | [3] -0.279 | [4] 0.041 | entinostat -0.05 | vorinostat -0.006 | citarinostat -0.069 | silmitasertib 0.105 | [5] -0.007 | [6] -0.219

Going on with the list:

LONP1 (UniProt P36776)
inactive: [1] -0.006 | [2] -0.008 | [3] -0.024 | [4] -0.009 | entinostat -0.008 | vorinostat -0.022 | citarinostat 0.006 | silmitasertib -0.005 | [5] -0.016 | [6] -0.039 | entospletinib 0.014

LRRC59 (UniProt Q96AG4)
inactive: [1] -0.02 | [2] -0.003 | [3] 0.01 | [4] -0.007 | entinostat -0.027 | vorinostat -0.001 | citarinostat 0.007 | silmitasertib -0.038 | [5] 0.013 | [6] -0.004 | entospletinib 0.001

LAP3 (UniProt P28838)
inactive: [1] -0.013 | [2] 0.008 | [3] -0.011 | [4] 0.025 | entinostat 0.007 | vorinostat 0.093 | citarinostat 0.088 | silmitasertib 0.01 | [5] 0.008 | [6] -0.027 | entospletinib -0.033

LRPAP1 (UniProt P30533)
inactive: [1] -0.034 | [2] -0.031 | [3] 0.024 | [4] 0.022 | entinostat -0.037 | vorinostat -0.044 | citarinostat -0.005 | silmitasertib 0.008 | [5] -0.02 | [6] -0.02 | entospletinib -0.005

KYAT1 (UniProt Q16773)
inactive: [1] 0.011 | [2] -0.018 | [3] -0.025 | [4] -0.033 | entinostat -0.001 | vorinostat 0.063 | citarinostat 0.065 | silmitasertib -0.011 | [5] -0.036 | [6] -0.055 | entospletinib 0.013

KTI12 (UniProt Q96EK9)
inactive: [1] -0.052 | [2] 0.048 | [3] -0.13 | [4] 0.038 | entinostat 0.035 | vorinostat 0.043 | citarinostat 0.062 | silmitasertib -0.1 | [5] 0.026 | [6] -0.023 | entospletinib 0.034

LLPH (UniProt Q9BRT6)
inactive: [1] 0.159 | [2] 0.169 | [3] 0.371 | [4] 0.191 | entinostat -0.165 | vorinostat -0.075 | citarinostat -0.169 | silmitasertib 0.263 | [5] 0.282 | [6] -0.216 | entospletinib 0.037
